Experimental data from the supplement of paper PMC6078165.
Values are relative to the signal before dosing, not to a vehicle control; the signal also falls without drug.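 Fibroblast labels denote human fibroblasts, mainly primary ones from uterus (C12385, HUF), lung (H6013), bone (Hs27A), adrenal (HADF) and skin (WS1), plus mammary HMF and breast cancer-associated Hs343T. Cancer cells are basal-like or mesenchymal-like triple-negative breast cancer lines. A hit is a response shift exceeding 3x replicate standard deviation. The tissue of the other fibroblasts is not given here.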

System: MDAMB436
Assay: relative JC-1 red fluorescence (viability) vs pre-drug, coculture with fibroblast (fraction); higher = more viable cancer cells
Experimental: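 JC-1 labelled TNBC cells cocultured 1:1 (1,500 cells each) with CellTrace Violet stained primary or stromal fibroblasts in 384-well plates in FluoroBrite medium, treated with one of 42 anticancer drugs at 0.1, 1, 10 or 100 uM. JC-1 red fluorescence (mitochondrial integrity in cancer cells only) was read by plate reader every 8 h for 72 h. Values are normalised to each well's pre-drug value. The stock of one drug was tenfold lower, so its dose labels may be too high.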

CC(C)C[C@H](NC(=O)[C@@H](COC(C)(C)C)NC(=O)[C@H](Cc1ccc(O)cc1)NC(=O)[C@H](CO)NC(=O)[C@H](Cc1c[nH]c2ccccc12)NC(=O)[C@H](Cc1cnc[nH]1)NC(=O)[C@@H]1CCC(=O)N1)C(=O)N[C@@H](CCCNC(=N)N)C(=O)N1CCC[C@H]1C(=O)NNC(N)=O [Goserelin]
relative JC-1 red fluorescence
Details	8 h	16 h	24 h	32 h	40 h	48 h	56 h	64 h	72 h
0.1 µM, coculture fibroblast: C12385	0.7743	0.666	0.63	0.543	0.491	0.466	0.449	0.433	0.43
0.1 µM, coculture fibroblast: H6013	0.767	0.754	0.746	0.732	0.712	0.737	0.703	0.685	0.636
0.1 µM, coculture fibroblast: H6019	0.697	0.6418	0.59724	0.515	0.474	0.456	0.43	0.409	0.393
0.1 µM, coculture fibroblast: H6076	0.737	0.661	0.6381	0.5933	0.5937	0.575	0.5879	0.577	0.575
0.1 µM, coculture fibroblast: H6231	0.753	0.662	0.684	0.599	0.584	0.555	0.536	0.505	0.484
0.1 µM, coculture fibroblast: HADF	0.809	0.701	0.676	0.64	0.621	0.643	0.591	0.59	0.553
0.1 µM, coculture fibroblast: HCFa	0.7723	0.737	0.709	0.683	0.67	0.685	0.629	0.619	0.565
0.1 µM, coculture fibroblast: HCPF	0.7154	0.6585	0.661	0.599	0.593	0.562	0.545	0.52	0.509
0.1 µM, coculture fibroblast: HHSteC	0.8166	0.747	0.725	0.6825	0.6771	0.6834	0.62582	0.602	0.545
0.1 µM, coculture fibroblast: HMF	0.732	0.6695	0.645	0.598	0.585	0.546	0.546	0.516	0.512
0.1 µM, coculture fibroblast: HPFa	0.859	0.765	0.727	0.683	0.668	0.675	0.591	0.557	0.48
0.1 µM, coculture fibroblast: HUF	0.829	0.7	0.661	0.582	0.529	0.505	0.475	0.463	0.456
0.1 µM, coculture fibroblast: Hs5	0.756	0.6884	0.662	0.603	0.586	0.545	0.556	0.516	0.514
0.1 µM, coculture fibroblast: Hs27A	0.892	0.809	0.801	0.801	0.777	0.827	0.735	0.71	0.631
0.1 µM, coculture fibroblast: Hs343T	0.7192	0.6488	0.6126	0.568	0.5461	0.5119	0.50787	0.4999	0.4917
0.1 µM, coculture fibroblast: WS1	0.739	0.68	0.6298	0.543	0.493	0.467	0.444	0.416	0.404
1 µM, coculture fibroblast: C12385	0.806	0.711	0.652	0.584	0.539	0.511	0.488	0.471	0.46
1 µM, coculture fibroblast: H6013	0.86	0.789	0.785	0.788	0.778	0.805	0.769	0.747	0.699
1 µM, coculture fibroblast: H6019	0.7506	0.6639	0.596	0.53	0.486	0.471	0.44	0.4113	0.374
1 µM, coculture fibroblast: H6076	0.755	0.648	0.67	0.647	0.637	0.622	0.627	0.625	0.621
1 µM, coculture fibroblast: H6231	0.747	0.654	0.625	0.575	0.542	0.519	0.509	0.483	0.457
1 µM, coculture fibroblast: HADF	0.833	0.752	0.704	0.677	0.662	0.669	0.625	0.618	0.58
1 µM, coculture fibroblast: HCFa	0.834	0.775	0.714	0.69	0.666	0.676	0.611	0.597	0.545
1 µM, coculture fibroblast: HCPF	0.771	0.682	0.634	0.588	0.563	0.528	0.503	0.491	0.467
1 µM, coculture fibroblast: HHSteC	0.811	0.734	0.693	0.657	0.644	0.652	0.595	0.575	0.516
1 µM, coculture fibroblast: HMF	0.775	0.683	0.647	0.619	0.6	0.573	0.57	0.567	0.563
1 µM, coculture fibroblast: HPFa	0.8851	0.82815	0.7778	0.737	0.72	0.729	0.644	0.614	0.539
1 µM, coculture fibroblast: HUF	0.843	0.726	0.694	0.613	0.556	0.53	0.5	0.482	0.475
1 µM, coculture fibroblast: Hs5	0.794	0.705	0.6721	0.628	0.611	0.575	0.582	0.548	0.535
1 µM, coculture fibroblast: Hs27A	0.882	0.831	0.803	0.827	0.796	0.867	0.788	0.785	0.71
1 µM, coculture fibroblast: Hs343T	0.829	0.755	0.682	0.644	0.611	0.581	0.56	0.536	0.524
1 µM, coculture fibroblast: WS1	0.7836	0.674	0.637	0.564	0.519	0.492	0.468	0.436	0.418
